These results are taken from PMC8887419.

By UniProt entry, the sequences of proteins in these tests, tags left out.
UniProt P11142: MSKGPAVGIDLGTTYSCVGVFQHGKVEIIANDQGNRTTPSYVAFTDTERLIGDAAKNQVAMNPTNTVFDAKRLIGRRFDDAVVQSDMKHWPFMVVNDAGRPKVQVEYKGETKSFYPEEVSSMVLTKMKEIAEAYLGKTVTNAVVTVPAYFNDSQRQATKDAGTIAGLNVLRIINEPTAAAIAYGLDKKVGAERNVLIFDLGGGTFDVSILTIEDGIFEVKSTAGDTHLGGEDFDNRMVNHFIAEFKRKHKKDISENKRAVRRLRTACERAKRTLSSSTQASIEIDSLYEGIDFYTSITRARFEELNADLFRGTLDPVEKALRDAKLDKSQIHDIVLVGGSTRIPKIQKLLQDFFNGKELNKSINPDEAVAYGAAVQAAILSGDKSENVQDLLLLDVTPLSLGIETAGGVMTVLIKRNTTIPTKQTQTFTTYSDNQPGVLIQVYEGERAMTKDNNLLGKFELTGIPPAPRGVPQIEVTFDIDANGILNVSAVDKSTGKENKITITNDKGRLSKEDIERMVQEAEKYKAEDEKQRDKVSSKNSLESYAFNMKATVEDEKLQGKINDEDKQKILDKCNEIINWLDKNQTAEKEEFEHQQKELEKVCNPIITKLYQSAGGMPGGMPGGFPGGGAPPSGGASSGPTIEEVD

This assay concerns the target recombinant His-HSC70 (human) (UniProt P11142). Nature of the assay: SEC; recombinant proteins at different molar ratios, 20 min on ice in BC50 (20 mM Tris-HCl pH 7.5, 50 mM KCl, 0.2 mM EDTA, 10% glycerol) with 0.05% NP-40; Superdex 200 10/300 GL; fractions by western blot; both purified. In general terms: Size exclusion chromatography separates by hydrodynamic size, large species first.

Results are given in words; binding and its absence hold for the method and conditions named.

In the case of “recombinant His-tNASP (from UniProt P49321-1 1-788)”, the binding result is listed as “no binding”.
